Some entries share one result that the patent states for a list of compounds. At least one structure is not confirmed: it was looked up by name or label, or the drawing left a doubt.
Tests used:
Format in all cases: biochemical
Details in all cases: measured in quadruplicate, compared with cruzain
thrombin = thrombin (Homo sapiens, UniProt P00734); assay: In vitro thrombin inhibition assay
trypsin = assay: In vitro trypsin inhibition assay
plasmin = plasmin (Homo sapiens, UniProt P00747); assay: In vitro plasmin inhibition assay
92 kDa gelatinase = 92 kDa gelatinase (Homo sapiens, UniProt P14780); assay: In vitro 92 kDa gelatinase inhibition assay
[1] = biological target: tumor necrosis factor alpha converting enzyme (TACE) (Homo sapiens, UniProt P78536); assay: In vitro TACE inhibition assay

The chains behind the UniProt entries cited, without tags or fusion partners. Residues count along the entry.
UniProt P00747, 97-580 partner limits assumed, species assumed: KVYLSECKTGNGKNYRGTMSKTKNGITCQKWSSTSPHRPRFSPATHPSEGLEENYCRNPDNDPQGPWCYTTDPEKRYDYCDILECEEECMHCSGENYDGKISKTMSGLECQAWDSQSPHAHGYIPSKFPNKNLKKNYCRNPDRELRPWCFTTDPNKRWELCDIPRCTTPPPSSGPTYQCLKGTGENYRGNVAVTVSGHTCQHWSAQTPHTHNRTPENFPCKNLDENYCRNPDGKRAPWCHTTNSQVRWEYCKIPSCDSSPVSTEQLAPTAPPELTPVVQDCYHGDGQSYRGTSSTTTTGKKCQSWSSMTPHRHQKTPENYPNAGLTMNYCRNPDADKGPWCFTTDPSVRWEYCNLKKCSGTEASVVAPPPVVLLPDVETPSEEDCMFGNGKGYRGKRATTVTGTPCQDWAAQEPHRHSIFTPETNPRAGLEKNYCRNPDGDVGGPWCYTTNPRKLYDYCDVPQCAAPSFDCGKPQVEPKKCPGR
UniProt P00747, 581-810 limits assumed, species assumed: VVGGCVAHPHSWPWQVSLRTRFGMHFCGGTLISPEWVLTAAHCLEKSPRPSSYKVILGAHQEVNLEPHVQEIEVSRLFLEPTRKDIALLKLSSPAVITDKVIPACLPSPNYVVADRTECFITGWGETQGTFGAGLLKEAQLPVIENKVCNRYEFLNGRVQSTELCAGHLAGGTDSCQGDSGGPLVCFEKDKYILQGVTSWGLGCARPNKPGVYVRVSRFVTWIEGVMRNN
UniProt P14780, 94-707, species assumed: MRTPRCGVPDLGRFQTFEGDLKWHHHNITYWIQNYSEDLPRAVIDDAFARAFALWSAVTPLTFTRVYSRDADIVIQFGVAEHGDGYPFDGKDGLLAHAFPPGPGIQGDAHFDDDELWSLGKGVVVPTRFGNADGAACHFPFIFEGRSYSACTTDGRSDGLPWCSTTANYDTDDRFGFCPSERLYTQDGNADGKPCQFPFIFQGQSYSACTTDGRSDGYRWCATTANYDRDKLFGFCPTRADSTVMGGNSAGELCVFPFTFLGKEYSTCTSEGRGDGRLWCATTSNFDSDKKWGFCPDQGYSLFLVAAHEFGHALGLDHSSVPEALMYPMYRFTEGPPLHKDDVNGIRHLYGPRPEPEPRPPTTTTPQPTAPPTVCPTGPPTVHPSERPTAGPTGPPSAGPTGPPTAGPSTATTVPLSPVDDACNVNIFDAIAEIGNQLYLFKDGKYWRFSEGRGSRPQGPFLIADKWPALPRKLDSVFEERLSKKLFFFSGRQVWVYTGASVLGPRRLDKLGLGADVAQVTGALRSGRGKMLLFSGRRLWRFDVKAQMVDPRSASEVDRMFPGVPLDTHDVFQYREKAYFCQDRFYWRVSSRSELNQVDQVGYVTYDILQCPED
UniProt P78536, 215-824: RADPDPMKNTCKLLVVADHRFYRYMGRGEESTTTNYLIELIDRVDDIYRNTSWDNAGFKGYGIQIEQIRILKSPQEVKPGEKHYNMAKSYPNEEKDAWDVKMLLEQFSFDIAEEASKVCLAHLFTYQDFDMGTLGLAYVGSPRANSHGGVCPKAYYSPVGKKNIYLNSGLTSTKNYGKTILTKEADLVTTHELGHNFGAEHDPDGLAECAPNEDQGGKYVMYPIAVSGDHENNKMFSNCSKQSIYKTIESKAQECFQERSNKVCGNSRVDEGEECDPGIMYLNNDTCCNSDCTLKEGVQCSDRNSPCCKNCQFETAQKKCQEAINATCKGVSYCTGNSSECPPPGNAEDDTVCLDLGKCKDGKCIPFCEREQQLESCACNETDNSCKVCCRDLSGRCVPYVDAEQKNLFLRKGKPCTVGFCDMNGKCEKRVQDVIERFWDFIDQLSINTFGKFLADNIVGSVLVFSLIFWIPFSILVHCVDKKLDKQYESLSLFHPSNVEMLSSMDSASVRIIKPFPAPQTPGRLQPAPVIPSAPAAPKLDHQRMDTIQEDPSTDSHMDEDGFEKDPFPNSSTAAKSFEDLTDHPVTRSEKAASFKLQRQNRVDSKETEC

O=C(NCc1ccc(NC(=S)NCc2ccccc2)cc1)C(=O)c1cc2ccccc2s1 [Compound 2]
No significant inhibitory activity: inhibitory activity against thrombin (thrombin) | inhibitory activity against trypsin (trypsin) | inhibitory activity against plasmin (plasmin) | inhibitory activity against 92 kDa gelatinase (92 K) (92 kDa gelatinase) | inhibitory activity against TACE [1]

O=C(NCc1ccc(NC(=S)NCc2ccccc2)cc1)C(=O)c1ccc(-c2ccccc2)cc1 [Compound 3]
No significant inhibitory activity: inhibitory activity against thrombin (thrombin) | inhibitory activity against trypsin (trypsin) | inhibitory activity against plasmin (plasmin) | inhibitory activity against 92 kDa gelatinase (92 K) (92 kDa gelatinase) | inhibitory activity against TACE [1]

O=C(Nc1ccc(CNC(=O)C(=O)c2ccc(-c3ccccc3)cc2)cc1)Nc1ccc(-c2ccccc2)cc1 [Compound 4]
No significant inhibitory activity: inhibitory activity against thrombin (thrombin) | inhibitory activity against trypsin (trypsin) | inhibitory activity against plasmin (plasmin) | inhibitory activity against 92 kDa gelatinase (92 K) (92 kDa gelatinase) | inhibitory activity against TACE [1]

O=C(NCCc1ccc(NC(=S)NCc2ccccc2)cc1)C(=O)c1cc2ccccc2s1 [Compound 6]
No significant inhibitory activity: inhibitory activity against thrombin (thrombin) | inhibitory activity against trypsin (trypsin) | inhibitory activity against plasmin (plasmin) | inhibitory activity against 92 kDa gelatinase (92 K) (92 kDa gelatinase) | inhibitory activity against TACE [1]
